Experimental data from US9510593B2, “S-benzylthiouracil compounds and methods of enhancing plant root growth” (Valent BioSciences Corporation, priority 2014, dated 2016).
Some entries share one result that the patent states for a list of compounds.

Assays:
[1] = system: tomato; assay: Tomato petri plate assay; assay type: in vivo; conditions: continuous exposure
Experimental: For tomato, the plants were grown in disposable (150 mm) sterile plastic petri plates (Falcon, BD Biosciences, Franklin Lakes, N.J.). In the tomato assay, a single sheet of Whatman #1 filter paper was placed at the bottom of the plate, 15 tomato seeds were added, and 10 mL of treatment solution was added. At the end of 6 d, the 10 largest seedlings were selected for measurement from each plate. In each study, a minimum of 3 replicate plates were used. In tomato, several S-Benzylthiouracil compounds were tested to determine the effects on root growth.

[2] = system: rice; assay: Rice pouch assay: growth of primary root and shoot; assay type: in vivo; conditions: substitution of the sulfur with an oxygen
Experimental: Seeds were placed in germination pouches consisting of germination paper as an insert in a gas-permeable 16×14 cm plastic pouch (CYG Pouch; Mega International, St. Paul, Minn.). In pouch solution evaluation, S-Benzylthiouracil compounds or their salts were dissolved in a small volume of DMSO and added to sterile water with a maximum of 0.5% v/v DMSO at final dilution. The S-Benzylthiouracil solution was subsequently pipetted into the growth pouch, followed by the addition of seeds of the crop being tested. The pouches were arranged in a randomized complete block design in growth racks and placed in 19-liter polycarbonate food storage containers (Rubbermaid Commercial Products, Winchester, Va.). The sealed containers were held in an upright growth cabinet maintained at 25 C with a 12 hour light: 12 hour dark photoperiod. For rice, plants were harvested at 6 d, while in mungbean and corn, the plants were harvested at 4 d post sowing. Measurements were performed on the primary root and shoot of each seedling. The growth of the primary root of rice was examined in the pouch assay system. The results of the testing, presented as percent change in root length across all S-Benzylthiouracil compounds, are shown below.

Compound: Oc1ccnc(SCc2cccc(F)c2)n1 [Compound 1, S-(3-Fluorobenzyl)-2-thiouracil]
- Effect on tomato root growth, in words [1]: enhanced root growth

Compound: Oc1ccnc(SCc2ccccc2)n1 [Compound 2, 2-[(phenylmethyl)thio]-4(3H)-pyrimidinone]
- Effect on tomato root growth, in words [1]: enhanced root growth

Compound: Oc1ccnc(SCc2ccc(F)cc2)n1 [Compound 3]
- Effect on tomato root growth, in words [1]: enhanced root growth

Compound: Oc1ccnc(SCc2ccc(F)c(F)c2)n1 [Compound 5, S-(3,4-Difluorobenzyl)-2-thiouracil]
- Effect on tomato root growth, in words [1]: enhanced root growth

Compound: Oc1ccnc(SCc2cc(F)cc(F)c2)n1 [Compound 6, S-(3,5-Difluorobenzyl)-2-thiouracil]
- Effect on tomato root growth, in words [1]: enhanced root growth

Compound: Oc1cc(O)nc(SCc2ccccc2)n1 [Compound 10]
- Effect on tomato root growth, in words [1]: enhanced root growth

Compound: Cc1cc(O)nc(SCc2ccccc2)n1 [Compound 15]
- Effect on tomato root growth, in words [1]: enhanced root growth

Compound: Oc1cc(O)nc(SCc2cccc(F)c2)n1 [Compound 18]
- Effect on tomato root growth, in words [1]: enhanced root growth

Compound: Oc1ccnc(OCc2cccc(F)c2)n1 [Compound 21, 2-O-(3-fluorobenzyl)uracil]
- Reduction of root growth promoting activity as compared to the parent molecules [2]: greater than 66%

Compound: Oc1ccnc(OCc2ccccc2)n1 [Compound 24, 2-O-Benzyluracil]
- Reduction of root growth promoting activity as compared to the parent molecules [2]: greater than 66%
